# ChEMBL document CHEMBL1212744, “Relative contributions of active mediated transport and passive diffusion of fluoroquinolones with various lipophilicities in a Calu-3 lung epithelial cell model” (Antimicrob Agents Chemother, 2010)
# How the values were obtained:
# [1] = human
# [2] = Apparent permeability across apical to basolateral side in human Calu3 cells
# [3] = Distribution coefficient, log D of the compound; conditions: octanol/water
# [4] = Apparent permeability across basolateral to apical side in human Calu3 cells
# [5] = Efflux ratio of apparent permeability across basolateral to apical side over apical to basolateral side in human Calu3 cells
# [6] = human; remark: listed apart in the source
smiles,measurement,setting,value
CCn1cc(C(=O)O)c(=O)c2cc(F)c(N3CCN(C)CC3)cc21 [PEFLOXACIN],Papp,[1],8.7 ×10⁻⁶ cm/s
same,Papp A→B,[2],7.1 ×10⁻⁶ cm/s
same,logD,[3],0.25
same,Papp B→A,[4],9.8 ×10⁻⁶ cm/s
same,efflux ratio,[5],1.4
same,Papp,[6],8.7 ×10⁻⁶ cm/s
